# Measurements: patent US12715946B2, “Composition” (JOSHO GAKUEN EDUCATIONAL FOUNDATION, priority 2020, dated 2026)
# Not every detail of the peptide structures is certain; ends, links or a residue may be inferred.
# Test system: Chinese hamster ovary cells (CHO cells)
# Assay: Evaluation of cellular uptake of FITC-labeled model drugs (flow cytometry, MFI)
# Assay type: cell-based
# Details: Model drug: FITC-CTB (Molecular weight 11,000), 5 μg/mL, 2 hours incubation, n=3
# Method: Cellular uptake evaluation of the model drugs described above was conducted using Examples 1 to 3 (polymeric compounds of Manufacturing Examples 1 to 3) or Comparative Examples 1 to 2 (compounds of Manufacturing Examples 4 and 5). A suspension of Ham's F-12 medium (manufactured by Fujifilm Wako Chemical Corporation) containing Chinese hamster ovary cells (CHO cells, 2×10^5 cells/mL) was prepared and seeded at 500μL/well to each well of a 24-well plate. The cells were incubated in a CO2 gas incubator (37° C., 5% CO2) for 24 hours.
# Then, the compositions of the Examples and Comparative Examples (Table 1-6) were prepared by mixing 250 μL/well of Ham's F-12 medium containing the above model drugs and 250 μL/well of Ham's F-12 medium containing the manufacturing examples. […]
# Then, 400 μL/well of trypan blue solution (Fujifilm Wako Chemical Corporation) was added to suspend the cells, and the cells were collected in microtubes. The collected cell suspensions were passed through a cell strainer, and the mean fluorescence intensity (MFI) was measured by flow cytometry. […]
# While only the model drug introduced into the cells emits fluorescence. MFI represents the arithmetic average of the fluorescence intensity per cell, and a larger value of MFI indicates a more efficient intracellular uptake of the model drug.
compound,measurement,value
"N=C(N)NCCC[C@@H](N)C(=O)N[C@H](CCCNC(=N)N)C(=O)N[C@H](CCCNC(=N)N)C(=O)N[C@H](CCCNC(=N)N)C(=O)N[C@H](CCCNC(=N)N)C(=O)N[C@H](CCCNC(=N)N)C(=O)N[C@H](CCCNC(=N)N)C(=O)N[C@H](CCCNC(=N)N)C(N)=O [Comparative Example 1, D-octaarginine]",MFI ± S.D.,32.7 ± 4.7
